# Data source: PubChem BioAssay AID1671195 (Yale University, 2021)
# Test: 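Regulators of LDL receptor activity judged by labelled LDL uptake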 (primary screen)
# Cell system: human Huh7 hepatoma cells
# Reagent: siRNA pool against human genes, 18 nM
# Timing: about 2 to 2.5 days of knockdown, then 8 h LDL uptake
# Conditions: DiI-labelled LDL at 30 µg/ml for 8 h, in lipoprotein-deficient serum medium
# Detection: 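Fluorescent LDL signal imaged in cells, scaled to the plate median, robust z-score for each replicate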
# Reading the numbers: robust z-score: higher = more LDL uptake after knockdown
# Active means: 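Active when two or more replicates show a robust z-score above 2 or below -2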
# The whole screen tested about 22,000 reagents; below is a random part of them. About 1,510 of them (6.9%) count as active. 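Active includes knockdowns raising or lowering LDL uptake; positive z-scores mean more uptake, negative mean less.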
The first 4 records as a preview:
gene knocked down,"robust z-score, replicate 1","robust z-score, replicate 2","robust z-score, replicate 3",call
TTC39C (GeneID 125488),-1.59,-1.15,-1.47,inactive
MYH14 (GeneID 79784),-0.954,-1.54,-1.6,inactive
PCDH20 (GeneID 64881),-0.336,-0.071,-0.0822,inactive
LEP (GeneID 3952),-1.14,-1.38,-0.924,inactive

Results, from the first entry:
gene knocked down,"robust z-score, replicate 1","robust z-score, replicate 2","robust z-score, replicate 3",call
TTC39C (GeneID 125488),-1.59,-1.15,-1.47,inactive
MYH14 (GeneID 79784),-0.954,-1.54,-1.6,inactive
PCDH20 (GeneID 64881),-0.336,-0.071,-0.0822,inactive
LEP (GeneID 3952),-1.14,-1.38,-0.924,inactive
ADIPOR1 (GeneID 51094),-0.705,-0.689,-0.876,inactive
NCLN (GeneID 56926),2.58,1.29,3.57,active
FBXO36 (GeneID 130888),-0.34,0.123,0.322,inactive
ZNF799 (GeneID 90576),0.216,0.317,0.0594,inactive
ABL1 (GeneID 25),0.692,1.19,0.0541,inactive
LOC441465 (retired record) (GeneID 441465),-0.501,-0.161,0.191,inactive
CRIPTO (GeneID 6997),-1.25,0.0677,1.61,inactive
CCDC140 (GeneID 151278),0.0242,-0.279,0.101,inactive
DOCK8 (GeneID 81704),0.127,0.217,0.262,inactive
ZNF772 (GeneID 400720),0.0132,0.328,0.156,inactive
MPZL2 (GeneID 10205),-0.319,0.104,0.345,inactive
LINC01098 (GeneID 285501),0.0527,0.265,0.314,inactive
ACTL8 (GeneID 81569),0.399,0.462,-0.285,inactive
INTS10 (GeneID 55174),-0.607,-1.28,-0.943,inactive
WNT8A (GeneID 7478),0.0942,3.04,1.88,inactive
NTN4 (GeneID 59277),0.563,0.725,1.25,inactive
KLK11 (GeneID 11012),0.0445,0.111,0.587,inactive
CASP1P2 (GeneID 440067),0.602,1.03,0.482,inactive
TAFAZZIN (GeneID 6901),1.3,0.877,1.47,inactive
QRICH2 (GeneID 84074),-0.565,0.4,0.452,inactive
DIS3L (GeneID 115752),-0.965,0.38,-0.0457,inactive
DAPK1 (GeneID 1612),-0.373,-1.25,-0.536,inactive
LOC389365 (retired record) (GeneID 389365),-0.737,-0.755,-0.301,inactive
FDX2 (GeneID 112812),0.689,1.31,1.29,inactive
TNFRSF18 (GeneID 8784),1.43,1.92,1.45,inactive
GJB3 (GeneID 2707),-0.463,-0.168,-0.565,inactive
SMPD1 (GeneID 6609),0.828,0.298,0.00184,inactive
OR9K2 (GeneID 441639),0.962,1.44,0.47,inactive
HPR (GeneID 3250),1.6,-2.1,2.28,inactive
TEDC1 (GeneID 283643),0.777,0.668,0.465,inactive
LINC02898 (GeneID 400950),0.0328,0.238,-0.0747,inactive
INSR (GeneID 3643),-0.848,-1.15,-0.423,inactive
LOC389067 (retired record) (GeneID 389067),-0.31,-0.532,-0.356,inactive
ZNF285 (GeneID 26974),-0.452,-0.385,-0.222,inactive
LOC401287 (retired record) (GeneID 401287),-0.0389,-0.14,-0.0362,inactive
SIK2 (GeneID 23235),-0.0983,-0.976,-0.769,inactive
SYNE1 (GeneID 23345),-1.25,0.715,-1.24,inactive
NKPD1 (GeneID 284353),0.374,0.53,0.355,inactive
HAX1 (GeneID 10456),0.144,0.681,-0.928,inactive
PSMC1 (GeneID 5700),-0.0433,-0.538,-0.836,inactive
HLA-DPA1 (GeneID 3113),-0.559,0.276,-0.506,inactive
NVL (GeneID 4931),0.0752,-0.103,0.299,inactive
OR11H4 (GeneID 390442),-0.591,-0.718,-0.945,inactive
LOC389204 (retired record) (GeneID 389204),0.385,0.365,0.00887,inactive
DOK4 (GeneID 55715),2.05,2.69,0.718,active
LOC440783 (retired record) (GeneID 440783),0.804,0.505,0.523,inactive
TOMM20 (GeneID 9804),0.72,-0.396,-0.468,inactive
KITLG (GeneID 4254),0.108,-0.149,0.182,inactive
NAA15 (GeneID 80155),-0.136,0.0603,-0.257,inactive
CPAP (GeneID 55835),1.15,-1.13,0.366,inactive
ATOH7 (GeneID 220202),-0.822,-0.736,-0.616,inactive
KCNIP1 (GeneID 30820),-1.46,-1.6,-1.15,inactive
NDUFB3 (GeneID 4709),1.09,-0.0466,1.03,inactive
USP28 (GeneID 57646),1.97,1.01,2.28,inactive
HNRNPF (GeneID 3185),-0.056,-0.493,-0.411,inactive
MUL1 (GeneID 79594),0.214,1.75,1.91,inactive
PEAR1 (GeneID 375033),-1.73,-2.14,-1.88,inactive
H2BC1 (GeneID 255626),0.341,0.396,0.0884,inactive
ITGB6 (GeneID 3694),-0.886,-2.5,-2.25,active
ALX1 (GeneID 8092),-1.24,-1.82,-1.52,inactive
GTPBP2 (GeneID 54676),0.124,1.01,0.891,inactive
SLC39A7 (GeneID 7922),0.284,0.253,-0.028,inactive
NEDD8 (GeneID 4738),-1.22,0.129,-0.637,inactive
KCNJ6 (GeneID 3763),0.785,0.254,1.34,inactive
